Data reported in publication PMC10753557, “Design and Evaluation of Synthesized Pyrrole Derivatives as Dual COX-1 and COX-2 Inhibitors Using FB-QSAR Approach” (ACS Omega, 2023).
The match of structure and compound is tentative.

Chains of the proteins cited; added tags and fusions are not shown. Residues count along the entry.
UniProt P05979, 25-600 limits assumed: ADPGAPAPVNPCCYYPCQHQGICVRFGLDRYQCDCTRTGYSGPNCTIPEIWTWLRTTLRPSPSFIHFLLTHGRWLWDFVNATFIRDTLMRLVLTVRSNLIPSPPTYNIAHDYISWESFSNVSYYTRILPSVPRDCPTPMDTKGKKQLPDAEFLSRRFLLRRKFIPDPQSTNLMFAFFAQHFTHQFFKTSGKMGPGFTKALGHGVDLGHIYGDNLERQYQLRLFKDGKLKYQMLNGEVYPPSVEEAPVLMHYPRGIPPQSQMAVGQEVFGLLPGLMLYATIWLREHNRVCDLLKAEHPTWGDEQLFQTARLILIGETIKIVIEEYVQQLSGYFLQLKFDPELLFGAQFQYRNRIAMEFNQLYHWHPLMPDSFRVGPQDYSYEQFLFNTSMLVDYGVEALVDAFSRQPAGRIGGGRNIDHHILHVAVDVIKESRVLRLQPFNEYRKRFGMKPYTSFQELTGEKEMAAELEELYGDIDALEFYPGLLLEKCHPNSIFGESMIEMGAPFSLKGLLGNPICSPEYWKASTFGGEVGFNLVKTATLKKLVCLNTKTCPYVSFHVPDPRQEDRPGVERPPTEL
UniProt P35354, 18-604 limits assumed: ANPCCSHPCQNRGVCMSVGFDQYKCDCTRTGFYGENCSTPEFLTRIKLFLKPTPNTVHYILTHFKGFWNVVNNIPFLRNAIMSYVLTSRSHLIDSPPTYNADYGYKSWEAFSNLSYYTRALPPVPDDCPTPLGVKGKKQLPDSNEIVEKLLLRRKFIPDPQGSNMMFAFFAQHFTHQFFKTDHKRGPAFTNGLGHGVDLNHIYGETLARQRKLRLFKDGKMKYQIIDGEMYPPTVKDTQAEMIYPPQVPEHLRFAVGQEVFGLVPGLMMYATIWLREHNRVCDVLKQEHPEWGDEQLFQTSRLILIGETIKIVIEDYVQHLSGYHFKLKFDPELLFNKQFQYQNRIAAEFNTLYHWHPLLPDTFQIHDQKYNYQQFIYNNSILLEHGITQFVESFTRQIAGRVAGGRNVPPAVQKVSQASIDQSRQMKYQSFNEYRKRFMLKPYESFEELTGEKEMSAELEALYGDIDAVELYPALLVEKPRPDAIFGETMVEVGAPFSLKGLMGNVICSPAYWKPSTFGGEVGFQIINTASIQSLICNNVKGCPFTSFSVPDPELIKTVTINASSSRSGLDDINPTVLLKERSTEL

Key:
[1] = target: COX-1 (Ovis aries, UniProt P05979); assay: COX-1 fluorometric inhibitor screening kit (BioVision); format: biochemical; conditions: for COX-1% Inhibition 1 μM: 1 μM compound; for COX-1% Inhibition 1 μM / COX-1% Inhibition 10 μM: mean ± SD, quadruplicate; for COX-1% Inhibition 10 μM: 10 μM compound; for IC50: read-out: COX-1 IC50, fluorometric kit
[2] = target: COX-2 (Homo sapiens, UniProt P35354); assay: COX-2 fluorometric inhibitor screening kit (BioVision); format: biochemical

In the case of CCOC(=O)c1cc(-c2ccc(Cl)c(Cl)c2)n(CC(=O)O)c1C, the “COX-1% Inhibition 1 μM” value [1] is reported as 46.378 ± 1.501%, the “COX-1% Inhibition 10 μM” value [1] is reported as 86.461 ± 1.716% and the IC50 [1] is reported as greater than 1000 nM.

With CCOC(=O)c1cc(-c2cccc(Cl)c2)n(CC(=O)O)c1C the “COX-1% Inhibition 1 μM” value [1] was 34.587 ± 0.836%, the “COX-1% Inhibition 10 μM” value [1] was 41.326 ± 1.057% and the IC50 [1] was greater than 10000 nM. The “COX-2% Inhibition 1 μM” value [2] was 82.602 ± 2.061%, the “COX-2% Inhibition 10 μM” value [2] was 91.579 ± 2.458% and the “experimental activity on COX-2 (pIC50)” value [2] was 6.8446. For the same compound, the IC50 ([2]; read-out: COX-2 IC50) was 143 nM.
